Results are given in words; binding and its absence hold for the method and conditions named. Some results given as binding are weak or reduced against the parent protein; the word gives no strength.

By UniProt entry, the sequences of proteins in these tests, tags left out. Residues count along the entry.
UniProt P05094, residues 267-749: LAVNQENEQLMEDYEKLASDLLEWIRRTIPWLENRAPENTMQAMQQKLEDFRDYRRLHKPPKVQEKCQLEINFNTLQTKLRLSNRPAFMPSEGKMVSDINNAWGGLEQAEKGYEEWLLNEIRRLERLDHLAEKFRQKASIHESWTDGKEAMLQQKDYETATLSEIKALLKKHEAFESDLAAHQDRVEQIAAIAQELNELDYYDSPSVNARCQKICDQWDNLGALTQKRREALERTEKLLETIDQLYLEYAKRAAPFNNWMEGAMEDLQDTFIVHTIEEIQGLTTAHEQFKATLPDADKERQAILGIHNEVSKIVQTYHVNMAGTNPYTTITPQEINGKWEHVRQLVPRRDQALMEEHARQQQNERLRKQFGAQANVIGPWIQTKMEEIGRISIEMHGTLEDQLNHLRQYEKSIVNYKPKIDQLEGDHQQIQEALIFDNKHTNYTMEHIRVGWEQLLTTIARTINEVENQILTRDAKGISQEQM

The target in experiment [1] is spectrin-like repeats R1-R4 (residues 267-749) of chicken smooth muscle α-actinin (chicken) (UniProt P05094). Briefly: yeast two-hybrid; reaction weaker than myotilin/α-actinin and myotilin/myotilin.
The target is the same in experiment [2]. Briefly: yeast two-hybrid.
For experiment [3], the target named is T1, myotilin (full length, 498 residues) (human), Q9UBF9.
T1 chain: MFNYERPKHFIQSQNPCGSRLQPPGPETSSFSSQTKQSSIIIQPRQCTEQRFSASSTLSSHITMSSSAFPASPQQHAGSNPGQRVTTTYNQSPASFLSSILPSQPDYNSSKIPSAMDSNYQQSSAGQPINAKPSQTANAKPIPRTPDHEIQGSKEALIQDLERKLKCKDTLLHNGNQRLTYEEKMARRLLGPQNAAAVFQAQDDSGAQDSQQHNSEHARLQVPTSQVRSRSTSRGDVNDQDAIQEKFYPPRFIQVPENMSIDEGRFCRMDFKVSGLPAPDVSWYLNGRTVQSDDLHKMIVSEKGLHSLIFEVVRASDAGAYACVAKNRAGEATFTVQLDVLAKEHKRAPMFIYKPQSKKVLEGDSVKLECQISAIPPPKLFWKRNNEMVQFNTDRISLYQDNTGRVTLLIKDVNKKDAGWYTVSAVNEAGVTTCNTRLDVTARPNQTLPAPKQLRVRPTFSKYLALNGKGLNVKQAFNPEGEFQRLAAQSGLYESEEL
In words: yeast two-hybrid. The following applies: remark: other sources report otherwise.

As for “spectrin-like repeats R1-R4 (residues 267-749) of chicken smooth muscle α-actinin (from UniProt P05094 267-749)”, in experiment [1], the binding result is “binds”.

B1: myotilin (full length, 498 residues) (protein)
chain: T1 chain
With B1, the binding entry in experiment [2] is listed as “binds”.

B2: myotilin (full length, 498 residues), Q9UBF9 1-498 (protein)
chain: T1 chain
On to B2, for which the binding entry in experiment [3] is listed as “binds”.
